Experimental data taken from PubChem BioAssay AID2549 (National Center for Advancing Translational Sciences (NCATS), 2010).
Among all 240,000 compounds or so, about 1,300 (0.54%) were called active. This list was built around the results that the source calls inconclusive (neither active nor inactive); the mix of calls is not that of the screen. Calls follow the shape of the dose curve; as a rule, active = well fitted inhibition curve with a large enough effect; inconclusive = small, poorly fitted or top-dose-only effect; inactive = flat fitted curve, though single readings scatter. Potencies of inconclusive entries are doubtful fits and often do not repeat.

Sequences of proteins named here, by UniProt entry; tags and fusion partners are left off. A change or cut given only in a name is not applied to a line headed by its entry.
UniProt P46063: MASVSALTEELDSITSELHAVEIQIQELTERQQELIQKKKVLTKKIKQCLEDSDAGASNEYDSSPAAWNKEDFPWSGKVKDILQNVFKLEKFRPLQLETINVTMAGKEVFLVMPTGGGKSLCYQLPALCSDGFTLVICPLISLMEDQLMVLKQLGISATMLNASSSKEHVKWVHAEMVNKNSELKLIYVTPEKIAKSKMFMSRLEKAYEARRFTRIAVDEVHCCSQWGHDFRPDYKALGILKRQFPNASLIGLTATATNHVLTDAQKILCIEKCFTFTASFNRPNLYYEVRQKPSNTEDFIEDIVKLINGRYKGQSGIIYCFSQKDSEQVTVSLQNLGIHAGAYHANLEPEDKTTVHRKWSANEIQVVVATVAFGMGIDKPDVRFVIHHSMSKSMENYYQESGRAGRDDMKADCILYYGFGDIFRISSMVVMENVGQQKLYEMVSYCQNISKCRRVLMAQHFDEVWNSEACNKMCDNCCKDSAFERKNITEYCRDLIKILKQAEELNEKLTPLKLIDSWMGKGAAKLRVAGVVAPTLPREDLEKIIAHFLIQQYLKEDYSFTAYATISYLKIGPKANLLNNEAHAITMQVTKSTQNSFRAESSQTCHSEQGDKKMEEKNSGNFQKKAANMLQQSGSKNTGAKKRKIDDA

What follows are compounds tested against ATP-dependent DNA helicase Q1 (Homo sapiens) (UniProt P46063) (assay: qHTS Assay for Inhibitors of RecQ-Like Dna Helicase 1 (RECQ1)). Conditions: RECQ1 DNA unwinding, red fluorescence kinetic read; activity, negative = inhibition: at 57.3 µM (top of the series); series mostly up to 57.3 µM.
Procedure, shortened: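 50 nM RECQ1T1 preincubated 15 min with compound in Tris pH 8.0 buffer with MgCl2, DTT, Tween-20 and 2.5 ug/ml poly(dI-dC); started with 200 nM TAMRA/BHQ-2 forked duplex and 2 mM ATP. Unwinding read as fluorescence (525/598 nm), two reads 2 h apart.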
Also: nearly all actives have a fitted effect of over 30% in size.
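For activity, negative = inhibition in this document: plate controls were vehicle for no effect and no enzyme for full effect.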
Potency is read from the fitted curve at half-maximal effect.

Row | Structure (SMILES) | Potency | activity, negative = inhibition | outcome
1 | CC1=[N+](C)c2ccc3ccccc3c2C1(C)C | active: 3.55 µM | – | –
2 | N#C/C(=C/c1ccc(N2CCCCCC2)o1)c1ccc(Cl)cc1 | inconclusive: 25.1 µM [inhibitor, partial curve] | – | –
3 | O=C(O)CC(C(=O)O)N1C(=O)/C(=C/c2ccc(-c3nc4ccccc4s3)o2)SC1=S (configuration not stated) | inconclusive: 39.8 µM [inhibitor, single point] | – | –
4 | COC(=O)CNC(=O)C1Cc2ccccc2CN1S(=O)(=O)c1cccs1 (configuration not stated) | – | inactive: -2.95% | –
5 | O=C1C(Cl)=C(Nc2ccccc2O)C(=O)N1CCc1ccccc1 | inconclusive: 39.8 µM [inhibitor, single point] | – | –
6 | Cc1c(/C=N/Nc2nc3ccccc3[nH]2)c2ccccc2n1C | inconclusive: 25.1 µM [inhibitor, single point] | – | –
7 | O=C(CSc1nc2scc(-c3ccco3)c2c(=O)n1-c1ccccc1)NCC1CCCO1 (configuration not stated) | inconclusive: 25.1 µM [inhibitor, single point] | – | –
8 | Cc1ccc(-c2ccc(C3C(C#N)=C(N)Oc4n[nH]c(C)c43)o2)cc1 (configuration not stated) | active: 14.1 µM | – | –
9 | Cc1cc2nc(CSc3ccccc3)cc(=O)n2[nH]1 | inconclusive: 20 µM [inhibitor, partial curve, poor fit] | – | –
10 | COc1ccc(-c2csc(NC(=O)c3ccc(S(=O)(=O)N4CCc5ccccc5C4)cc3)n2)cc1 | – | inactive: -3.8% | –
11 | CCN(CC)Cc1cc(O)c(CN(CC)CC)cc1O | active: 25.1 µM | – | –
12 | CN(C)c1ccc(/C=C2\SC(=O)N(CCc3nnc(N)s3)C2=O)cc1 | inconclusive: 25.1 µM [inhibitor, single point] | – | –
13 | Cc1cc(O)c(Oc2cc(C)cc(O)c2O)c(O)c1 | active: 12.6 µM | – | –
14 | CCN(CC)S(=O)(=O)c1cccc(-c2n[nH]c(=S)n2/N=C/c2ccc(Br)cc2)c1 | inconclusive: 0.316 µM [inhibitor, full curve, poor fit] | – | –
15 | CC1=C(/C=C/C(C)=C/C=C/C(C)=C/C(=O)Nc2ccc(O)cc2)C(C)(C)CCC1 | inactive | – | –
16 | O=C1[C@@H]2[C@H]3[C@H](O)[C@H](O)C/C(=N/OCc4ccccc4)[C@H]3CC[C@H]2C(=O)N1c1ccc(F)cc1F | – | inactive: 14.5% [at 11.5 µM] | –
17 | CCc1c(C)nc2ncnn2c1N1CCCC(C(=O)NCc2ccc3c(c2)OCO3)C1 (configuration not stated) | inconclusive: 39.8 µM [inhibitor, single point] | – | –
18 | Nc1cc(-c2ccc(OC(F)(F)F)cc2)nn1-c1ccc(Cl)c(Cl)c1 | inconclusive: 28.2 µM [inhibitor, single point] | – | –
19 | Cc1cc(S(=O)(=O)NCCN(C)C)c(C)s1 | inconclusive: 0.178 µM [inhibitor, full curve, poor fit] | – | –
20 | COc1cccc2c1C(=O)c1c(O)c3c(c(O)c1C2=O)C[C@@](O)(C(=O)CO)C[C@@H]3O[C@@H]1C[C@H](N)[C@H](O)[C@H](C)O1 | active: 15.8 µM | – | –
21 | COc1ccc(C(=O)NCCCN2CCOCC2)cc1S(=O)(=O)N1CCCc2ccccc21 | active: 39.8 µM | – | –
22 | NC(=O)C1CCN(C2=C(Cl)C(=O)c3ccccc3C2=O)CC1 | – | inactive: 1.93% | –
23 | N#Cc1c(C(F)(F)F)cc(-c2ccco2)nc1SCc1ccccn1 | inconclusive: 39.8 µM [inhibitor, single point] | – | –
24 | CCOC(=O)c1cc(-c2ccc(OC)cc2)nn1-c1ccccc1C(=O)O | active: 7.94 µM | – | –

Grouped by structure, those above with a CF3 group.
Row | Structure (SMILES) | Potency | activity, negative = inhibition | outcome
18 | Nc1cc(-c2ccc(OC(F)(F)F)cc2)nn1-c1ccc(Cl)c(Cl)c1 | inconclusive: 28.2 µM [inhibitor, single point] | – | –
23 | N#Cc1c(C(F)(F)F)cc(-c2ccco2)nc1SCc1ccccn1 | inconclusive: 39.8 µM [inhibitor, single point] | – | –

Further records follow:

Row | Structure (SMILES) | Potency | activity, negative = inhibition | outcome
25 | COc1cc2cccc(OC)c(=O)c2c(OC)c1OC | – | inactive: -7.22% | –
26 | Cc1ccc(Cc2cncc(O)c2)cc1S(=O)(=O)O | inconclusive: 0.126 µM [inhibitor, full curve, poor fit] | – | –
27 | O=c1cc(-c2ccccc2O)oc2cc(O)cc(O)c12 | – | – | inactive
28 | CCN(CC)Cc1c(O)c(Cl)cc2c(C)cc(=O)oc12 | inconclusive: 35.5 µM [inhibitor, single point] | – | –
29 | O=C(NN1C(=O)C2CC=C(Cl)CC2C1=O)c1ccncc1 (configuration not stated) | active: 12.6 µM | – | –
30 | Cc1nnc(SCc2nc3scc(-c4ccccc4)c3c(=O)[nH]2)s1 | – | inactive: -0.744% | –
31 | CCOC(=O)/C(=C\C=C1/Sc2cc(OCC)c(OCC)cc2N1CC)C(C)=O | – | inactive: -14.6% | –
32 | C=C(C)C(=O)Nc1cccc(C2=NOC3(C2)C[C@@H](C(N)=O)N(C(=O)C2(C)CC2)C3)c1 (some centres not stated) | active: 10 µM | – | –
33 | CC1(C)CC(=O)C(C2C3=C(CC(C)(C)CC3=O)Oc3ccc4ccccc4c32)C(=O)C1 (configuration not stated) | – | – | inactive
34 | O=C(O)c1ccc(/C=N/Nc2cccc(C(F)(F)F)c2)cc1 | – | – | inactive
35 | CC1CCCC(NC(=O)CCn2c(=O)oc3ccccc32)C1C (configuration not stated) | inconclusive: 35.5 µM [inhibitor, partial curve] | – | –
36 | COC(=O)CCCC1=CC2=CC(=O)C(C)(OC(=O)c3cccs3)C(=O)C2=CN1C1CCCCC1 (configuration not stated) | inactive | – | –
37 | COc1cc(-c2nc3n(n2)C(c2ccncc2)C2=C(CCCC2=O)N3)cc(OC)c1OC (configuration not stated) | active: 28.2 µM | – | –
38 | Cn1c(=O)[nH]c(=O)c2c1nc(SCC(=O)Nc1ccccc1)n2Cc1ccccc1 | – | inactive: 1.42% | –
39 | O=C(COc1ccccc1[N+](=O)[O-])N/N=C/C=C/c1ccco1 | – | inactive: -21.6% | –
40 | CC[C@@H]1CN2CCc3cc(OC)c(OC)cc3[C@@H]2C[C@@H]1C[C@H]1NCCc2cc(OC)c(OC)cc21 | – | inactive: 2.33% | –
41 | CN(CC(=O)N1CCOCC1)C(=O)CSc1nc2ccccc2s1 | inconclusive: 0.282 µM [inhibitor, full curve] | – | –
42 | O=C1CC(c2ccccc2)=NN1c1nc(-c2ccccc2)cs1 | inconclusive: 39.8 µM [inhibitor, single point] | – | –
43 | CCOC(=O)CNS(=O)(=O)c1cc(-c2nn(C)c(=O)c3ccccc23)ccc1C | – | inactive: -3.09% | –
44 | COc1ccc(/C=N/Nc2nc(-c3cccnc3)nc3ccccc23)cc1OC | active: 20 µM | – | –
45 | CCNc1ccc(C(=O)OCC(=O)NCCN2C(=O)CSC2=O)cc1[N+](=O)[O-] | inconclusive: 20 µM [inhibitor, partial curve, poor fit] | – | –
46 | O=C(CSC(=S)N1CCCC1)c1cc(Br)cc(Br)c1O | active: 31.6 µM | – | –
47 | COc1ccccc1N1C(=O)CC(N2CCc3ccccc32)C1=O (configuration not stated) | inconclusive: 35.5 µM [inhibitor, single point] | – | –
48 | Cc1cc2c(=O)n(Cc3ccco3)c(SCC(=O)c3ccc(Cl)s3)nc2s1 | inconclusive: 39.8 µM [inhibitor, single point] | – | –

Row | Structure (SMILES) | Potency | activity, negative = inhibition | outcome
49 | Cn1c(SCC(=O)NC(=O)NCc2ccco2)nnc1-c1ccccc1 | inconclusive: 12.6 µM [inhibitor, partial curve] | – | –
50 | CCc1ccc(-c2cc(C(=O)NCc3ccco3)c3ccccc3n2)s1 | inconclusive: 39.8 µM [inhibitor, single point] | – | –
51 | C=CCc1cccc2cc(C(=O)Nc3ccc(F)cc3)c(=O)oc12 | – | inactive: -3.22% | –
52 | CCN(CC)S(=O)(=O)c1ccc(NC(=O)Cn2cnc3ccccc3c2=O)cc1 | inconclusive: 39.8 µM [inhibitor, single point] | – | –
53 | O=C1C=C(O)c2cccc(O)c2C1=O | inconclusive: 31.6 µM [inhibitor, single point] | – | –
54 | O=[N+]([O-])c1ccccc1NC(=S)N/N=C/c1ccc(O)c(O)c1 | inconclusive: 4.47 µM [inhibitor, full curve] | – | –
55 | Cc1ccc(S(=O)(=O)NCCc2nnc3ccc(NCCCOC(C)C)nn23)cc1 | inconclusive: 6.31 µM [inhibitor, single point] | – | –
56 | Cc1ccc(/C=C/C(=O)Nc2ccc([N+](=O)[O-])c(NC(=O)/C=C/c3ccc(C)o3)c2)o1 | inconclusive: 28.2 µM [inhibitor, single point] | – | –
57 | FC(F)(F)c1cccc(NC(=S)NCC2COc3ccccc3O2)c1 (configuration not stated) | inconclusive: 5.01 µM [inhibitor, full curve] | – | –
58 | Cc1ccccc1NC(=O)C1CCCN1S(=O)(=O)c1ccc2c(c1)n(C)c(=O)c(=O)n2C (configuration not stated) | inconclusive: 0.562 µM [inhibitor, single point] | – | –
59 | Cc1c(Cl)cccc1NC(=O)CN1CCC(C(O)(c2ccccc2)c2ccccc2)CC1 | inconclusive: 35.5 µM [inhibitor, single point] | – | –
60 | CCOC(=O)c1ccc(Cn2cnc3ccccc3c2=O)cc1 | inconclusive: 0.794 µM [inhibitor, single point] | – | –
61 | CC(C)(C)c1ccc(O)c(N)c1 | inconclusive: 25.1 µM [inhibitor, partial curve, poor fit] | – | –
62 | COc1ccc2nc(NC(=O)c3ccoc3C)sc2c1 | inconclusive: 0.0282 µM [inhibitor, full curve] | – | –
63 | CCCn1c(SCC(=O)NC(=O)NCc2ccco2)n[nH]c1=O | inconclusive: 39.8 µM [inhibitor, single point] | – | –
64 | Clc1ccccc1-c1cncnc1NCCN1CCOCC1 | – | inactive: -3.96% | –
65 | Oc1ccc(O)cc1 | inconclusive: 35.5 µM [inhibitor, single point] | – | –
66 | Cc1ccc(C)c(/C(O)=C2/C(=O)C(=O)N(CCN3CCOCC3)C2c2ccco2)c1 (configuration not stated) | – | inactive: -0.33% | –
67 | Cc1ccc2c(c1)c(CC(NC(=O)c1ccccc1Oc1ccccc1)C(=O)O)cn2C(=O)OCc1ccccc1 (configuration not stated) | inconclusive: 22.4 µM [inhibitor, single point] | – | –
68 | Cc1nc2c(-c3ccccc3)c(C)[nH]n2c(=O)c1Cc1ccccc1 | – | inactive: -3.61% | –
69 | O=C(CSc1nnc(Cc2ccccc2)n1C1CCCCC1)N1CCOCC1 | inconclusive: 1.26 µM [inhibitor, full curve, poor fit] | – | –
70 | CN1CCN(c2ccc(Nc3c4ccccc4nc4ccccc34)cc2)CC1 | active: 12.6 µM | – | –
71 | COc1ccccc1C(=O)Nc1ncc2c(n1)CC(c1ccco1)CC2=O (configuration not stated) | inconclusive: 14.1 µM [inhibitor, partial curve] | – | –
72 | COc1cnc(-c2ccccc2)[nH]c1=O | inconclusive: 3.16 µM [inhibitor, partial curve] | – | –
